# Experimental data published in the supplement of paper PMC8728848.
# Some of the results follow.
# B1: Agalectin (Anopheles gambiae) (protein)
# chain: MSNRPFTAKFPRYPENGDEVFIRGKLKDDAKSFSVNFCLPRPAQVAEHQTPPYIALHFKTIYDERDDTSRVVLNWKNLQWQQEEVLDNYWHVDRSQTFRVVFRLHEDCIKVFVNSVDHPPDYQFPVQLPLDQIESIELWDDVEHVEEISFRYDNGNSY
# Tests used:
# Assay in all cases: glycan array binding signal (z-score within array); higher = stronger binding
# Settings in all cases: glycan notation: IUPAC condensed, linker removed
# [1] = molecular target: Gal(b1-4)GlcNAc(b1-3)Gal(b1-4)GlcNAc(b1-2)[Gal(b1-4)GlcNAc(b1-3)Gal(b1-4)GlcNAc(b1-6)]Man(a1-6)[Gal(b1-4)GlcNAc(b1-3)Gal(b1-4)GlcNAc(b1-2)Man(a1-3)]Man(b1-4)GlcNAc(b1-4)GlcNAc
# In short: (§1)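 Columns mapping to the same glycan were averaged after glycan names were converted to IUPAC-condensed notation. The data come from 3228 arrays in the Consortium for Functional Glycomics database, limited to those with an available protein sequence. Binding is reported as a within-array Z-score averaged across arrays of one protein sequence and across linkers.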
# [2] = molecular target: Gal(b1-4)GlcNAc(b1-3)Gal(b1-4)GlcNAc(b1-2)[Gal(b1-4)GlcNAc(b1-3)Gal(b1-4)GlcNAc(b1-6)]Man(a1-6)[Gal(b1-4)GlcNAc(b1-3)Gal(b1-4)GlcNAc(b1-2)Man(a1-3)]Man(b1-4)GlcNAc(b1-4)[Fuc(a1-6)]GlcNAc
# In short: as §1
# [3] = molecular target: Gal(b1-4)GlcNAc(b1-3)Gal(b1-4)GlcNAc(b1-3)Gal(b1-4)GlcNAc
# In short: as §1
# [4] = molecular target: Gal(b1-4)GlcNAc(b1-3)Gal(b1-4)GlcNAc(b1-3)Gal(b1-4)GlcNAc(b1-2)Man(a1-3)[Gal(b1-4)GlcNAc(b1-3)Gal(b1-4)GlcNAc(b1-3)Gal(b1-4)GlcNAc(b1-2)Man(a1-6)]Man(b1-4)GlcNAc(b1-4)GlcNAc
# In short: as §1
# [5] = molecular target: Gal(b1-4)GlcNAc(b1-3)Gal(b1-4)GlcNAc(b1-3)Gal(b1-4)GlcNAc(b1-2)Man(a1-3)[Gal(b1-4)GlcNAc(b1-3)Gal(b1-4)GlcNAc(b1-3)Gal(b1-4)GlcNAc(b1-2)Man(a1-6)]Man(b1-4)GlcNAc(b1-4)[Fuc(a1-6)]GlcNAc
# In short: as §1
# [6] = molecular target: Gal(b1-4)GlcNAc(b1-3)Gal(b1-4)GlcNAc(b1-3)Gal(b1-4)GlcNAc(b1-2)[Gal(b1-4)GlcNAc(b1-3)Gal(b1-4)GlcNAc(b1-3)Gal(b1-4)GlcNAc(b1-6)]Man(a1-6)[Gal(b1-4)GlcNAc(b1-3)Gal(b1-4)GlcNAc(b1-3)Gal(b1-4)GlcNAc(b1-2)Man(a1-3)]Man(b1-4)GlcNAc(b1-4)[Fuc(a1-6)]GlcNAc
# In short: as §1
# [7] = molecular target: Gal(b1-4)GlcNAc(b1-3)Gal(b1-4)GlcNAc(b1-3)Gal(b1-4)GlcNAc(b1-3)Gal(b1-4)GlcNAc(b1-2)Man(a1-3)[Gal(b1-4)GlcNAc(b1-3)Gal(b1-4)GlcNAc(b1-3)Gal(b1-4)GlcNAc(b1-3)Gal(b1-4)GlcNAc(b1-2)Man(a1-6)]Man(b1-4)GlcNAc(b1-4)GlcNAc
# In short: as §1
# [8] = molecular target: Gal(b1-4)GlcNAc(b1-3)Gal(b1-4)GlcNAc(b1-3)Gal(b1-4)GlcNAc(b1-3)Gal(b1-4)GlcNAc(b1-2)Man(a1-3)[Gal(b1-4)GlcNAc(b1-3)Gal(b1-4)GlcNAc(b1-3)Gal(b1-4)GlcNAc(b1-3)Gal(b1-4)GlcNAc(b1-2)Man(a1-6)]Man(b1-4)GlcNAc(b1-4)[Fuc(a1-6)]GlcNAc
# In short: as §1
# [9] = molecular target: Gal(b1-4)GlcNAc(b1-3)Gal(b1-4)GlcNAc(b1-3)Gal(b1-4)GlcNAc(b1-3)Gal(b1-4)GlcNAc(b1-2)[Gal(b1-4)GlcNAc(b1-3)Gal(b1-4)GlcNAc(b1-3)Gal(b1-4)GlcNAc(b1-3)Gal(b1-4)GlcNAc(b1-6)]Man(a1-6)[Gal(b1-4)GlcNAc(b1-3)Gal(b1-4)GlcNAc(b1-3)Gal(b1-4)GlcNAc(b1-3)Gal(b1-4)GlcNAc(b1-2)Man(a1-3)]Man(b1-4)GlcNAc(b1-4)[Fuc(a1-6)]GlcNAc
# In short: as §1
# [10] = molecular target: Gal(b1-4)GlcNAc(b1-3)Gal(b1-4)GlcNAc(b1-3)Gal(b1-4)GlcNAc(b1-3)Gal(b1-4)GlcNAc(b1-3)Gal(b1-4)GlcNAc(b1-2)Man(a1-3)[Gal(b1-4)GlcNAc(b1-3)Gal(b1-4)GlcNAc(b1-3)Gal(b1-4)GlcNAc(b1-3)Gal(b1-4)GlcNAc(b1-3)Gal(b1-4)GlcNAc(b1-2)Man(a1-6)]Man(b1-4)GlcNAc(b1-4)GlcNAc
# In short: as §1
# [11] = molecular target: Gal(b1-4)GlcNAc(b1-3)Gal(b1-4)GlcNAc(b1-3)Gal(b1-4)GlcNAc(b1-3)Gal(b1-4)GlcNAc(b1-3)Gal(b1-4)GlcNAc(b1-2)Man(a1-3)[Gal(b1-4)GlcNAc(b1-3)Gal(b1-4)GlcNAc(b1-3)Gal(b1-4)GlcNAc(b1-3)Gal(b1-4)GlcNAc(b1-3)Gal(b1-4)GlcNAc(b1-2)Man(a1-6)]Man(b1-4)GlcNAc(b1-4)[Fuc(a1-6)]GlcNAc
# In short: as §1
# [12] = molecular target: Gal(b1-4)GlcNAc(b1-3)Gal(b1-4)GlcNAc(b1-3)Gal(b1-4)GlcNAc(b1-3)Gal(b1-4)GlcNAc(b1-3)Gal(b1-4)GlcNAc(b1-2)[Gal(b1-4)GlcNAc(b1-3)Gal(b1-4)GlcNAc(b1-3)Gal(b1-4)GlcNAc(b1-3)Gal(b1-4)GlcNAc(b1-3)Gal(b1-4)GlcNAc(b1-6)]Man(a1-6)[Gal(b1-4)GlcNAc(b1-3)Gal(b1-4)GlcNAc(b1-3)Gal(b1-4)GlcNAc(b1-3)Gal(b1-4)GlcNAc(b1-3)Gal(b1-4)GlcNAc(b1-2)Man(a1-3)]Man(b1-4)GlcNAc(b1-4)[Fuc(a1-6)]GlcNAc
# In short: as §1
# [13] = molecular target: Gal(b1-4)GlcNAc(b1-3)Gal(b1-4)GlcNAc(b1-3)Gal(b1-4)GlcNAc(b1-3)Gal(b1-4)GlcNAc(b1-3)Gal(b1-4)GlcNAc(b1-3)Gal(b1-4)GlcNAc(b1-2)Man(a1-3)[Gal(b1-4)GlcNAc(b1-3)Gal(b1-4)GlcNAc(b1-3)Gal(b1-4)GlcNAc(b1-3)Gal(b1-4)GlcNAc(b1-3)Gal(b1-4)GlcNAc(b1-3)Gal(b1-4)GlcNAc(b1-2)Man(a1-6)]Man(b1-4)GlcNAc(b1-4)GlcNAc
# In short: as §1
# [14] = molecular target: Gal(b1-4)GlcNAc(b1-3)Gal(b1-4)GlcNAc(b1-3)GalNAc
# In short: as §1
# [15] = molecular target: Gal(b1-4)GlcNAc(b1-3)Gal(b1-4)GlcNAc(b1-3)[Gal(b1-4)GlcNAc(b1-3)Gal(b1-4)GlcNAc(b1-6)]GalNAc
# In short: as §1
# [16] = molecular target: Gal(b1-4)GlcNAc(b1-3)Gal(b1-4)GlcNAc(b1-6)[Gal(b1-3)]GalNAc
# In short: as §1
# [17] = molecular target: Gal(b1-4)GlcNAc(b1-3)Gal(b1-4)[Fuc(a1-3)]GlcNAc(b1-3)Gal(b1-4)[Fuc(a1-3)]GlcNAc
# In short: as §1
# [18] = molecular target: Gal(b1-4)GlcNAc(b1-3)GalNAc
# In short: as §1
# [19] = molecular target: Gal(b1-4)GlcNAc(b1-3)[Fuc(a1-3)GlcNAc(b1-6)]Gal(b1-4)Glc
# In short: as §1
# [20] = molecular target: Gal(b1-4)GlcNAc(b1-3)[Gal(b1-4)GlcNAc(b1-6)]Gal(b1-4)GlcNAc
# In short: as §1
# [21] = molecular target: Gal(b1-4)GlcNAc(b1-3)[GlcNAc(b1-6)]Gal(b1-4)GlcNAc
# In short: as §1
# [22] = molecular target: Gal(b1-4)GlcNAc(b1-6)Gal(b1-4)GlcNAc
# In short: as §1
# [23] = molecular target: Gal(b1-4)GlcNAc(b1-6)GalNAc
# In short: as §1
# [24] = molecular target: Gal(b1-4)GlcNAc(b1-6)[Gal(b1-3)]GalNAc
# In short: as §1
# [25] = molecular target: Gal(b1-4)GlcNAc(b1-6)[Gal(b1-4)GlcNAc(b1-3)]GalNAc
# In short: as §1
# [26] = molecular target: Gal(b1-4)GlcNAc6P
# In short: as §1
# [27] = molecular target: Gal(b1-6)Gal
# In short: as §1
# [28] = molecular target: Gal3S(b1-3)GalNAc
# In short: as §1
# [29] = molecular target: Gal3S(b1-3)GlcNAc
# In short: as §1
# [30] = molecular target: Gal3S(b1-3)[Fuc(a1-4)]GlcNAc
# In short: as §1
# [31] = molecular target: Gal3S(b1-4)Glc
# In short: as §1
# [32] = molecular target: Gal3S(b1-4)Glc6S
# In short: as §1
# [33] = molecular target: Gal3S(b1-4)GlcNAc
# In short: as §1
# [34] = molecular target: Gal3S(b1-4)[Fuc(a1-3)]Glc6S
# In short: as §1
# [35] = molecular target: Gal3S(b1-4)[Fuc(a1-3)]GlcNAc
# In short: as §1
# [36] = molecular target: Gal3S(b1-4)[Fuc(a1-3)]GlcNAc6S
# In short: as §1
# [37] = molecular target: Gal3S4S(b1-4)GlcNAc
# In short: as §1
# [38] = molecular target: Gal3S6S(b1-4)GlcNAc
# In short: as §1
# [39] = molecular target: Gal3S6S(b1-4)GlcNAc6S
# In short: as §1
# [40] = molecular target: Gal4S(b1-4)GlcNAc
# In short: as §1
# [41] = molecular target: Gal4S6S(b1-4)GlcNAc
# In short: as §1
# [42] = molecular target: Gal6P(b1-4)GlcNAc
# In short: as §1
# [43] = molecular target: Gal6S(b1-3)GlcNAc
# In short: as §1
# [44] = molecular target: Gal6S(b1-3)GlcNAc6S
# In short: as §1
# [45] = molecular target: Gal6S(b1-4)Glc
# In short: as §1
binder,measurement,setting,value
B1,glycan array binding signal (z-score),[1],0.848
same,glycan array binding signal (z-score),[2],-0.276
same,glycan array binding signal (z-score),[3],0.007
same,glycan array binding signal (z-score),[4],2.89
same,glycan array binding signal (z-score),[5],1.86
same,glycan array binding signal (z-score),[6],1.48
same,glycan array binding signal (z-score),[7],1.76
same,glycan array binding signal (z-score),[8],3.26
same,glycan array binding signal (z-score),[9],-0.07
same,glycan array binding signal (z-score),[10],1.15
same,glycan array binding signal (z-score),[11],1.35
same,glycan array binding signal (z-score),[12],0.622
same,glycan array binding signal (z-score),[13],0.694
same,glycan array binding signal (z-score),[14],0.216
same,glycan array binding signal (z-score),[15],1.1
same,glycan array binding signal (z-score),[16],1.67
same,glycan array binding signal (z-score),[17],0.018
same,glycan array binding signal (z-score),[18],-0.509
same,glycan array binding signal (z-score),[19],-0.172
same,glycan array binding signal (z-score),[20],0.477
same,glycan array binding signal (z-score),[21],1.35
same,glycan array binding signal (z-score),[22],-0.474
same,glycan array binding signal (z-score),[23],0.194
same,glycan array binding signal (z-score),[24],-0.657
same,glycan array binding signal (z-score),[25],-0.199
same,glycan array binding signal (z-score),[26],-0.18
same,glycan array binding signal (z-score),[27],-1.18
same,glycan array binding signal (z-score),[28],0.617
same,glycan array binding signal (z-score),[29],-0.175
same,glycan array binding signal (z-score),[30],0.674
same,glycan array binding signal (z-score),[31],-0.709
same,glycan array binding signal (z-score),[32],-0.949
same,glycan array binding signal (z-score),[33],0.497
same,glycan array binding signal (z-score),[34],1.35
same,glycan array binding signal (z-score),[35],-0.534
same,glycan array binding signal (z-score),[36],-0.269
same,glycan array binding signal (z-score),[37],-0.443
same,glycan array binding signal (z-score),[38],-0.244
same,glycan array binding signal (z-score),[39],-0.011
same,glycan array binding signal (z-score),[40],0.381
same,glycan array binding signal (z-score),[41],0.114
same,glycan array binding signal (z-score),[42],-0.335
same,glycan array binding signal (z-score),[43],-1.05
same,glycan array binding signal (z-score),[44],-0.589
same,glycan array binding signal (z-score),[45],-0.372

# 2 entries drawn at random from the list so far, as already listed:
binder,measurement,setting,value
B1,glycan array binding signal (z-score),[5],1.86
same,glycan array binding signal (z-score),[17],0.018
